# Reference: PubChem BioAssay AID330 (DTP/NCI, 2004)
# The list does not hold the whole screen: it gathers tests that were run many times, whatever their T/C, doses with no T/C, and many T/C values between a quarter and a half above the control. Further doses and runs are listed elsewhere. T/C gives the treated animals as a percentage of the vehicle group. Some entries give survivors of the animals treated and no T/C: the source files T/C as zero there, which appears to mark a toxic dose or a test without result, not a measured value. Some survivor counts are full or nearly so, which does not show that the dose was tolerated: the source hardly ever lists a survival T/C far under the control, and the zero likely stands for such cases as well. Counts of survivors are from the toxicity check (mostly the fifth day) where no day follows; animals may have died later. Schedule codes are those of the source, taken here to give the interval after Q, in days (D) or hours (H), and the number of doses after X. Some entries hold several experiments; their values stand side by side, smallest first. Brackets with × stand for listed records that agree. For survival time, the PubChem record calls one and a half times the control and up active, and a quarter to a half above the control has no call in these data; cut-offs in other NCI protocols can differ. Some T/C values are followed by the survivors on the day toxicity was checked, most often the fifth; without a count, all were alive then.
# Test system: P388 leukemia ip, CD2F1 mice, survival T/C
# Assay: NCI In Vivo Anticancer Drug Screen. Data for tumor model P388 Leukemia (intraperitoneal) in CD2F1 (CDF1) mice
# Conditions: T/C endpoint: median survival time, higher T/C = longer survival
# [1] = dose: 0.15 mg/kg/injection, schedule: Q01DX009 (ip), vehicle: water
# [2] = dose: 0.3 mg/kg/injection, schedule: Q01DX009 (ip), vehicle: water
# [3] = dose: 1.2 mg/kg/injection, schedule: Q01DX009 (ip), vehicle: water
# [4] = dose: 200.0 mg/kg/injection, schedule: Q01DX009 (ip), vehicle: Klucel (hydroxypropylcellulose) (HPC)
# [5] = dose: 15.0 mg/kg/injection, schedule: Q01DX005 (ip), vehicle: saline with Tween-80
# [6] = dose: 30.0 mg/kg/injection, schedule: Q01DX005 (ip), vehicle: saline with Tween-80
# [7] = dose: 60.0 mg/kg/injection, schedule: Q01DX005 (ip), vehicle: saline with Tween-80
# [8] = dose: 120.0 mg/kg/injection, schedule: Q01DX005 (ip), vehicle: saline with Tween-80
# [9] = dose: 240.0 mg/kg/injection, schedule: Q01DX005 (ip), vehicle: saline with Tween-80
# [10] = dose: 50.0 mg/kg/injection, schedule: Q01DX009 (ip), vehicle: saline
# [11] = dose: 200.0 mg/kg/injection, schedule: Q01DX009 (ip), vehicle: saline with Tween-80
# [12] = dose: 50.0 mg/kg/injection, schedule: Q01DX009 (ip), vehicle: Klucel (hydroxypropylcellulose) (HPC)
smiles,measurement,setting,value
CSCS(=O)C[C@H](CO)NC(=O)/C=C/c1c(C)[nH]c(=O)[nH]c1=O (some centres undefined),T/C,"dose: 0.07 mg/kg/injection, schedule: Q01DX009 (ip), vehicle: water",139 % of control
same,T/C,"dose: 0.08 mg/kg/injection, schedule: Q01DX009 (ip), vehicle: water, evaluated on day 20",149 % of control
same,T/C,"dose: 0.08 mg/kg/injection, schedule: Q01DX009 (ip), vehicle: water, evaluated on day 30","102, 108, 113, 118 (2×), 122 (2×), 126, 128 (2×), 129, 130, 132, 133, 141, 153 % of control"
same,T/C,"dose: 0.1 mg/kg/injection, schedule: Q01DX009 (ip), vehicle: water",140 % of control
same,T/C,"dose: 0.15 mg/kg/injection, schedule: Q01DX009 (ip), vehicle: other",137 % of control
same,T/C,[1],"117, 118, 118 [5 of 6 alive], 122, 124 (2×), 128, 129 (2×), 131 [5 of 6 alive], 132 [5 of 6 alive], 135, 137 (3×), 143 (2×), 145, 147, 148, 150, 166 % of control"
same,survivor count,[1],4 of 6
same,T/C,"dose: 0.3 mg/kg/injection, schedule: Q01DX009 (ip), vehicle: other",144 % of control
same,T/C,[2],"100, 111, 112, 121, 131, 132, 136 [5 of 6 alive], 145, 146, 149, 149 [5 of 6 alive] (2×), 150, 155 (2×), 156 [5 of 6 alive], 157 [5 of 6 alive], 159, 161, 164 % of control"
same,survivor count,[2],"1 of 6, 5 of 6 (2×), 6 of 6"
same,survivor count,"dose: 0.6 mg/kg/injection, schedule: Q01DX009 (ip), vehicle: other",3 of 6
same,T/C,"dose: 0.6 mg/kg/injection, schedule: Q01DX009 (ip), vehicle: water, evaluated on day 25",100 % of control [5 of 6 alive]
same,T/C,"dose: 0.6 mg/kg/injection, schedule: Q01DX009 (ip), vehicle: water, evaluated on day 30","88, 92, 102, 137 [4 of 6 alive], 150 [4 of 6 alive], 154, 157 [5 of 6 alive], 165 % of control"
same,survivor count,"dose: 0.6 mg/kg/injection, schedule: Q01DX009 (ip), vehicle: water","0 of 6, 1 of 6 (2×), 2 of 6, 3 of 6, 4 of 6 (2×), 5 of 6, 6 of 6 (2×)"
same,survivor count,"dose: 0.7 mg/kg/injection, schedule: Q01DX009 (ip), vehicle: water",5 of 6
same,survivor count,"dose: 0.8 mg/kg/injection, schedule: Q01DX009 (ip), vehicle: water",6 of 6
same,survivor count,"dose: 0.9 mg/kg/injection, schedule: Q01DX009 (ip), vehicle: water",2 of 6
same,survivor count,"dose: 1.0 mg/kg/injection, schedule: Q01DX009 (ip), vehicle: water",5 of 6
same,survivor count,"dose: 1.2 mg/kg/injection, schedule: Q01DX009 (ip), vehicle: other",0 of 6
same,T/C,[3],100 and 103 % of control
same,survivor count,[3],"0 of 6 (2×), 1 of 6 (2×), 2 of 6, 3 of 6, 4 of 6 (2×), 5 of 6 (2×), 6 of 6"
O=c1nc(-c2ccccc2)sc(=O)[nH]1,survivor count,[4],3 of 6
O=C1Nc2ccccc2/C1=N/N=C/c1ccccc1O,survivor count,[4],3 of 6
C#CCOCC(O)CCl (centres undefined),survivor count,"dose: 400.0 mg/kg/injection, schedule: Q01DX009 (ip), vehicle: saline",3 of 6
O=C1C(Cl)=C(N2CC2)C(=O)C(Cl)=C1N1CC1,T/C,"dose: 0.31 mg/kg/injection, schedule: Q01DX009 (ip), vehicle: saline with Tween-80",126 % of control
same,T/C,"dose: 0.63 mg/kg/injection, schedule: Q01DX009 (ip), vehicle: saline with Tween-80",136 % of control
same,T/C,"dose: 1.25 mg/kg/injection, schedule: Q01DX009 (ip), vehicle: saline with Tween-80",148 % of control
same,T/C,"dose: 2.5 mg/kg/injection, schedule: Q01DX009 (ip), vehicle: saline with Tween-80",148 % of control
same,survivor count,"dose: 20.0 mg/kg/injection, schedule: Q01DX009 (ip), vehicle: saline with Tween-80",6 of 6
O=C1C=CC(Nc2cc(Cl)ccc2Cl)C1Nc1cc(Cl)ccc1Cl (centres undefined),survivor count,[5],6 of 6
same,survivor count,[6],6 of 6
same,survivor count,[7],6 of 6
same,survivor count,[8],6 of 6
same,survivor count,[9],6 of 6
CC(=O)OCN(C)N=Nc1ccc(C#N)cc1,survivor count,"dose: 240.0 mg/kg/injection, schedule: Q01DX005 (ip), vehicle: Klucel (hydroxypropylcellulose) (HPC)",6 of 6
Cc1cccn2ccnc12,T/C,[10],125 % of control
same,survivor count,"dose: 100.0 mg/kg/injection, schedule: Q01DX009 (ip), vehicle: saline",4 of 6
same,survivor count,"dose: 200.0 mg/kg/injection, schedule: Q01DX009 (ip), vehicle: saline",0 of 6
O=C1C=CC(=O)N1CC[P+](c1ccccc1)(c1ccccc1)c1ccccc1,survivor count,"dose: 50.0 mg/kg/injection, schedule: Q01DX009 (ip), vehicle: water",4 of 6
same,survivor count,"dose: 100.0 mg/kg/injection, schedule: Q01DX009 (ip), vehicle: water",0 of 6
same,survivor count,"dose: 200.0 mg/kg/injection, schedule: Q01DX009 (ip), vehicle: water",0 of 6
NOCc1cccc(CON)c1,survivor count,"dose: 100.0 mg/kg/injection, schedule: Q01DX009 (ip), vehicle: saline with Tween-80",6 of 6
same,survivor count,[11],4 of 6
COc1cc(C(C)c2cc3c(cc2OCCO)OCO3)cc(OC)c1OC (centres undefined),T/C,"dose: 50.0 mg/kg/injection, schedule: Q01DX005 (ip), vehicle: saline with Tween-80","98, 102, 104, 109 % of control"
same,T/C,"dose: 100.0 mg/kg/injection, schedule: Q01DX005 (ip), vehicle: saline with Tween-80","106, 110, 114, 135 % of control"
same,T/C,"dose: 200.0 mg/kg/injection, schedule: Q01DX005 (ip), vehicle: saline with Tween-80","114, 150, 151 [5 of 6 alive], 166 % of control"
same,T/C,"dose: 400.0 mg/kg/injection, schedule: Q01DX005 (ip), vehicle: saline with Tween-80",149 % of control
CC(C)NC(=O)N(CCCCBr)N=O,T/C,"dose: 25.0 mg/kg/injection, schedule: Q01DX009 (ip), vehicle: Klucel (hydroxypropylcellulose) (HPC)",127 % of control
same,T/C,[12],135 % of control
same,T/C,"dose: 100.0 mg/kg/injection, schedule: Q01DX009 (ip), vehicle: Klucel (hydroxypropylcellulose) (HPC)",137 and 145 % of control
same,survivor count,[4],5 of 6 and 6 of 6
C=C[Si]12OCCN(CCO1)CCO2,T/C,[12],126 % of control
NCCc1c[nH]c2ccc(OCc3ccccc3)cc12,survivor count,"dose: 200.0 mg/kg/injection, schedule: Q04DX003 (ip), vehicle: saline",6 of 6
same,survivor count,"dose: 400.0 mg/kg/injection, schedule: Q04DX003 (ip), vehicle: saline",0 of 6
C/C(=N\NC(=S)N1CCN(c2cnccn2)CC1)c1ccccn1,T/C,[5],131 and 136 % of control [5 of 6 alive]
same,survivor count,[6],1 of 6 and 2 of 6
same,survivor count,[7],0 of 6
same,survivor count,[8],0 of 6
same,survivor count,[9],0 of 6
C[NH-].C[NH-].[Cl][Pt+2][Cl],T/C,"dose: 6.25 mg/kg/injection, schedule: Q01DX009 (ip), vehicle: saline",141 % of control
same,survivor count,"dose: 12.5 mg/kg/injection, schedule: Q01DX009 (ip), vehicle: saline",5 of 6 and 6 of 6
same,survivor count,"dose: 25.0 mg/kg/injection, schedule: Q01DX009 (ip), vehicle: saline",2 of 6 and 6 of 6
same,survivor count,[10],0 of 6 and 1 of 6
CN1CCC(=C2c3ccccc3CC(O)c3sccc32)CC1 (centres undefined),survivor count,"dose: 400.0 mg/kg/injection, schedule: Q04DX003 (ip), vehicle: saline with Tween-80",2 of 6
OC1CCN(c2c3ccccc3nc3ccccc23)CC1,survivor count,"dose: 50.0 mg/kg/injection, schedule: Q04DX002 (ip), vehicle: saline",3 of 6
O=C(NP(=O)(N1CC1)N1CC1)c1cc(I)ccc1I,T/C,"dose: 8.0 mg/kg/injection, schedule: Q01DX005 (ip), vehicle: suspension in saline",141 % of control
same,T/C,"dose: 32.0 mg/kg/injection, schedule: Q01DX005 (iv), vehicle: suspension in saline",128 % of control
same,T/C,"dose: 64.0 mg/kg/injection, schedule: Q01DX005 (iv), vehicle: suspension in saline",125 % of control
O=c1c(Br)cc(CN2CCOCC2)cc(CN2CCOCC2)c1O,survivor count,[11],6 of 6
